# Laboratory results as given in patent US20260015418A1.
# These are yes or no findings as the source states them, for the method shown. Some entries that bind do so weakly or less than the wild type.
# T1: human B7-H3 on CHO-huROR1-huB7-H3 cells (human) (UniProt Q5ZPR3)
# T1 sequence (looked up): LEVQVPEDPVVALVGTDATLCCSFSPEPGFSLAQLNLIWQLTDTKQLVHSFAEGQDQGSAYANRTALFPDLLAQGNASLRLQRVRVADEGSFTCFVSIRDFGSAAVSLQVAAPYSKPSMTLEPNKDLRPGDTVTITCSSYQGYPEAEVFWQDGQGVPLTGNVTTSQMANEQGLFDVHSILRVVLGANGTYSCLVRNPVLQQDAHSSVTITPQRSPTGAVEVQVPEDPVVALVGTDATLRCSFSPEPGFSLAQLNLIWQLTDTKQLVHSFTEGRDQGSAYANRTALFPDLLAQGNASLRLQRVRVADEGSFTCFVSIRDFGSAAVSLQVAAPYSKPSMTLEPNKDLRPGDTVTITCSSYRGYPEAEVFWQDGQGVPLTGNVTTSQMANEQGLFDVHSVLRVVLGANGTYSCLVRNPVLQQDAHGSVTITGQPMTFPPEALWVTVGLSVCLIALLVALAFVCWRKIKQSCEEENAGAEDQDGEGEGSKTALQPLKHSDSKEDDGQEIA
# Molecular target: T1, human B7-H3 on CHO-huROR1-huB7-H3 cells (human)
# Assay: flow cytometry on CHO-huROR1-huB7-H3 cells, FITC anti-human IgG, MFI over secondary antibody only
binder,measurement,value
"B5 (antibody, V domains shown) VH: EVQLLESGGGLVQPGGSLRLSCAASGFTFSDYAMSWVRQAPGKGLEWVSSISSGSGSIYYADSVKGRFTISRDNSKNTLYLQMNSLRAEDTAVYYCAKNLIPLDYWGQGTLVTVSS VL: QSVLTQPPSASGTPGQRVTISCSGSSSNIGSNAVSWYQQLPGTAPKLLIYYNSHRPSGVPDRFSGSKSGTSASLAISGLRSEDEADYYCGSWDASLNAYVFGGGTKLTVL",binding,binds
